Measurements reported in patent US6436310B1, “Deicing solution” (Sears Petroleum & Transport Corporation, priority 1998, dated 2002).

Test: Corrosion rate, SHRP H205.7 Test Method for Evaluation of Corrosive Effects of Deicing Chemicals

SMILES	Corrosion Rate, One Week (4.1% carbohydrate)	Corrosion Rate, Six weeks (4.1% carbohydrate)	Corrosion Rate, Three weeks (4.1% carbohydrate)	Corrosion Rate, One Week (carbohydrate Nil)	Corrosion Rate, Six weeks (carbohydrate Nil)	Corrosion Rate, Three weeks (carbohydrate Nil)
[Cl-].[Cl-].[Mg+2] [Mg Cl2, magnesium chloride]	0.89 mils per year	0.40 mils per year	0.61 mils per year	2.58 mils per year	1.73 mils per year	1.93 mils per year
[Cl-].[Na+] [Sodium Chloride, sodium chloride]	–	–	–	5.97 mils per year	5.48 mils per year	4.66 mils per year
